# PubChem BioAssay AID1259331, Drosophila RNAi Screening Center | 2017
# Assay: 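Knock-downs that alter ATP level after a high zinc chloride dose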 (primary screen)
# Cells: Drosophila S2R+ cells
# Reagents: long dsRNA against Drosophila genes
# Timing: 5 days (4 days knock-down, then 1 day zinc)
# Conditions: zinc chloride at 15 mM final level for 1 day
# Read-out: 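Luminescent ATP assay standing in for viability; Z score is the mean over three replicate plates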
# Reading the numbers: mean Z score: higher = more ATP than other wells, better survival under zinc; ATP luminescence: higher = more ATP, more viable cells
# Rule for the call: 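a reagent is called a hit when its Z score is above 1.5 or below -1.5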
# Calls: active = hit, ATP up or down; inactive = not a hit
# This is one part, drawn at random, of about 3,100 deposited reagents. In the full data, 126 (4.1%) got an active call. 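Calls are per reagent; zinc was so toxic that few knock-downs lowered ATP further, so most hits raise ATP.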 Raw values are not corrected between plates. A plus sign joins genes that one reagent is predicted to hit. Not given: the amount of reagent.
target,amplicon,mean Z score,"ATP luminescence, replicate 1","ATP luminescence, replicate 2",activity call
jagn,DRSC12152,-0.504,27868,28468,inactive
jagn,DRSC39810,0.351,62844,59397,inactive
Or67b,DRSC11241,-0.72,66223,47735,inactive
Or67b,DRSC39658,0.0253,63221,59174,inactive
Mayo,DRSC14300,0.519,75724,73563,inactive
Or83c,DRSC12359,-0.502,67372,52332,inactive
Or83c,DRSC39535,-0.592,43931,46089,inactive
CG13893,DRSC08363,0.53,85982,78534,inactive
CG13893,DRSC39792,0.199,55590,62673,inactive
NaCP60E,DRSC04307,-0.133,35805,27079,inactive
NaCP60E,DRSC26120,-0.322,46194,50086,inactive
mge,DRSC08721,1.6,1.06e5,82588,active
gb,DRSC15961,-0.45,39473,42885,inactive
gb,DRSC24834,0.339,59689,57780,inactive
Or42b,DRSC04913,0.165,1.14e5,76445,inactive
Or42b,DRSC27273,0.124,59062,60546,inactive
nrv3,DRSC03097,-0.718,43266,44822,inactive
Polr3I,DRSC19922,,5.87e5,5.71e5,inactive
OXA1L,DRSC09672,-0.651,28090,25965,inactive
OXA1L,DRSC29571,0.154,62261,65314,inactive
CG1924,DRSC19823,-0.255,60323,63359,inactive
CG1924,DRSC24870,0.142,60207,67030,inactive
wit,DRSC08741,-0.52,29534,25193,inactive
wit,DRSC26091,-0.784,50041,41496,inactive
wit,DRSC37034,-0.0772,48081,48063,inactive
Kap-alpha3,DRSC16976,7.85,1.43e5,1.60e5,active
Indy-2 + CG33934,DRSC15685,-0.489,39096,36308,inactive
Indy-2 + CG33934,DRSC15686,-0.29,35479,42071,inactive
CG31693,DRSC03674,-0.348,36576,40639,inactive
CG31693,DRSC39586,-0.0992,62673,54108,inactive
mthl3 + mthl4,DRSC25990,-0.154,52230,51492,inactive
CG40006,DRSC03787,-0.394,36233,38187,inactive
CG40006,DRSC03814,-0.375,36599,40444,inactive
ClC-a,DRSC14947,4.43,69996,1.13e5,active
ClC-a,DRSC14948,0.895,47343,68949,inactive
ClC-a,DRSC16142,1.66,64662,65211,active
Targ,DRSC06206,3.66,1.36e5,1.42e5,active
Or67d,DRSC10158,0.665,87594,70116,inactive
Or67d,DRSC39518,-0.22,53447,46554,inactive
M6,DRSC11869,-0.393,70459,53053,inactive
M6,DRSC39840,0.197,55762,62450,inactive
CG31729,DRSC02524,-0.325,49400,54013,inactive
CG31729,DRSC02946,-0.586,40022,40547,inactive
CG31729,DRSC25841,0.822,65725,69161,inactive
moody,DRSC18515,-0.149,58849,68418,inactive
CG11437,DRSC11659,0.0174,71333,62844,inactive
Osi14,DRSC12368,3.68,1.51e5,1.28e5,active
Osi14,DRSC26397,-0.159,54990,55093,inactive
Tsp2A,DRSC18584,-0.489,53396,62570,inactive
Tsp2A,DRSC39445,0.172,47960,60049,inactive
Gr10a,DRSC22792,-0.652,43890,38770,inactive
Gr10a,DRSC26071,-0.0914,51321,54647,inactive
CG7342,DRSC16230,-0.196,42366,43845,inactive
CG7342,DRSC39501,0.0841,49040,51475,inactive

Laid out differently: results already given
{"target":"Or67d","amplicon":"DRSC39518","mean Z score":-0.22,"ATP luminescence, replicate 1":53447,"ATP luminescence, replicate 2":46554,"activity call":"inactive"}
{"target":"M6","amplicon":"DRSC11869","mean Z score":-0.393,"ATP luminescence, replicate 1":70459,"ATP luminescence, replicate 2":53053,"activity call":"inactive"}
{"target":"M6","amplicon":"DRSC39840","mean Z score":0.197,"ATP luminescence, replicate 1":55762,"ATP luminescence, replicate 2":62450,"activity call":"inactive"}
{"target":"CG31729","amplicon":"DRSC02524","mean Z score":-0.325,"ATP luminescence, replicate 1":49400,"ATP luminescence, replicate 2":54013,"activity call":"inactive"}
{"target":"CG31729","amplicon":"DRSC02946","mean Z score":-0.586,"ATP luminescence, replicate 1":40022,"ATP luminescence, replicate 2":40547,"activity call":"inactive"}
{"target":"CG31729","amplicon":"DRSC25841","mean Z score":0.822,"ATP luminescence, replicate 1":65725,"ATP luminescence, replicate 2":69161,"activity call":"inactive"}
{"target":"moody","amplicon":"DRSC18515","mean Z score":-0.149,"ATP luminescence, replicate 1":58849,"ATP luminescence, replicate 2":68418,"activity call":"inactive"}
{"target":"CG11437","amplicon":"DRSC11659","mean Z score":0.0174,"ATP luminescence, replicate 1":71333,"ATP luminescence, replicate 2":62844,"activity call":"inactive"}
{"target":"Osi14","amplicon":"DRSC12368","mean Z score":3.68,"ATP luminescence, replicate 1":1.51e5,"ATP luminescence, replicate 2":1.28e5,"activity call":"active"}

The list goes on:
target,amplicon,mean Z score,"ATP luminescence, replicate 1","ATP luminescence, replicate 2",activity call
promL,DRSC08733,-0.136,31862,28142,inactive
Trc8,DRSC15437,-0.341,41206,43639,inactive
Trc8,DRSC28575,-0.366,55933,55563,inactive
CCKLR-17D3,DRSC20017,-0.888,32444,35599,inactive
CCKLR-17D3,DRSC23715,-0.648,50875,49692,inactive
Ir68b,DRSC10251,-0.123,72817,57243,inactive
Ir68b,DRSC39424,0.247,53276,51732,inactive
trpl,DRSC06728,0.251,88761,76324,inactive
trpl,DRSC25485,0.0211,47154,51441,inactive
C1GalTA,DRSC03246,-0.4,51989,49057,inactive
CG4324,DRSC04462,0.352,55848,41085,inactive
CG4324,DRSC27530,0.144,65005,57871,inactive
CG7091,DRSC12944,-0.424,34364,53000,inactive
CG7091,DRSC16197,-0.249,34124,50921,inactive
CG2061,DRSC19348,-0.218,42422,45525,inactive
CG2061,DRSC39511,0.958,60666,67252,inactive
Oatp30B,DRSC02727,-0.0338,55110,56413,inactive
Oatp30B,DRSC39872,-0.646,46055,49435,inactive
Ir7d,DRSC18010,-0.649,47874,62861,inactive
ETHR,DRSC15915,0.0229,35822,60933,inactive
ETHR,DRSC29606,0.416,68332,67269,inactive
Cad96Ca,DRSC14220,0.196,35702,62128,inactive
Cad96Ca,DRSC16693,-0.231,40159,42182,inactive
Cad96Ca,DRSC36738,-0.0805,47771,46554,inactive
CG3106,DRSC18279,-0.536,40845,39388,inactive
CG3106,DRSC29465,0.0523,60958,63462,inactive
Zip48C,DRSC06314,-0.827,25881,24998,inactive
Zip48C,DRSC39573,-0.357,56928,49418,inactive
CG4025,DRSC18523,0.397,74358,70870,inactive
Desat2,DRSC25894,0.902,71196,66377,inactive
Desat2,DRSC39498,-0.351,44445,43022,inactive
CG17929,DRSC15291,-0.619,35197,41874,inactive
CG17929,DRSC39673,5.5,1.52e5,1.41e5,active
